Where a name gives a salt, the structure may show the parent alone. The list shows a part of the results. This data set is noisy: repeats of one test often differ as much as different tests do.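 In a drug-repurposing library screen, luminescence reads luciferase driven by eight TEAD-binding elements, stably integrated into human kidney-derived cells. Compounds scoring over five robust Z scores above the plate mean are called hits.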
System: HEK293A TEAD-LUC reporter
Assay: TEAD-luciferase reporter activity (YAP activation), robust Z score vs plate; higher = stronger YAP/TEAD activation
Settings: 24 h

Structure (SMILES) | TEAD-luciferase reporter activity (compound concentration: 200 nM) | TEAD-luciferase reporter activity (compound concentration: 2 uM) | TEAD-luciferase reporter activity (compound concentration: 10 uM)
CC1(C)CNc2cc(NC(=O)c3cccnc3NCc3ccncc3)ccc21 [motesanib diphosphate] | inactive: 3.87 | inactive: -0.922 | inactive: -0.146
COc1ccc(OC2CN(Cc3ccc(C#N)cc3)C2)cc1 | inactive: -0.0623 |  | inactive: 3.51
C/C(=C\c1ccc(C(=O)O)cc1)c1ccc2c(c1)C(C)(C)CCC2(C)C | inactive: -0.752 | inactive: -0.772 | inactive: -1.37
COC(=O)[C@H](C/C=C/c1ccc(N(C)c2ncccn2)cc1)NC(=O)c1c(Cl)cccc1Cl | inactive: -1.3 | inactive: -0.61 | inactive: -0.459
COc1cc(-n2cnc3cc(-c4ccc(Cl)cc4)sc3c2=O)ccc1OCC(O)C1CC1 (centres undefined) | inactive: -0.608 | inactive: -1.33 | inactive: 1.77
CC(C)(C)OC(=O)N1CCC(N2C(=O)NC3CNCCC32)CC1 (centres undefined) | inactive: -1.2 | inactive: -0.49 | inactive: 0.494
CN(C)CCOC(=O)COc1ccc(Cl)cc1 | inactive: -2.14 | inactive: -0.683 | inactive: -0.522
C[C@@H](N)c1ccc(C(=O)Nc2ccnc3[nH]ccc23)cc1 | inactive: 0.143 | inactive: 1.64 | active: 5.71
CCCOc1ccc(-c2nc(-c3ccc4oc(C(N)(CO)CO)cc4c3)no2)cc1Cl | inactive: -1.35 | inactive: 0.0511 | inactive: 4.45
CN1CCN(C2=Nc3ccccc3Sc3nccn32)CC1 [pentiapine] | inactive: -0.639 | inactive: -1.02 | inactive: -1.89
CNCC(=O)N[C@H](C(=O)N[C@@H](Cc1ccccc1)[C@H](O)CN(CCC(C)C)C(=O)NC(C)(C)C)C(C)(C)C [Droxinavir] | inactive: 4.44 | inactive: -0.306 | inactive: 1.02
CC[C@H](NC(=O)c1c(NS(C)(=O)=O)c(-c2ccccc2)nc2ccccc12)c1ccccc1 | inactive: -0.463 | inactive: -1.01 | inactive: 0.417
N#CC[C@H](C1CCCC1)n1cc(-c2ncnc3[nH]ccc23)cn1 [ruxolitinib] |  | inactive: 1.24 | 
N#CC[C@H](C1CCCC1)n1cc(-c2ncnc3[nH]ccc23)cn1 | inactive: -0.668 |  | inactive: -0.629
Cc1ccccc1CN1CCN(Cc2c[nH]c(-c3ccccc3)n2)CC1 | inactive: 0.496 | inactive: 0.138 | inactive: 0.893
Cc1cc(C2CC3CCC2(C)C3(C)C)ccc1O (centres undefined) | inactive: -0.641 | inactive: -1.68 | inactive: 0.128
CCCCCCCC[C@@H]1NC(=O)[C@@H](CCC(=O)O)NC(=O)[C@H]2CCCN2C(=O)[C@H]([C@@H](C)O)NC(=O)[C@H](CCCCN)NC(=O)[C@H](CCC(N)=O)NC(=O)[C@@H]2CCCN2C(=O)[C@@H]2CCCN2C(=O)[C@H]([C@@H](C)CC)NC(=O)[C@H](CO)NC(=O)[C@H](C)NC(=O)[C@H]([C@@H](C)O)NC(=O)[C@H](CCC(=O)O)NC1=O [analog of POL-6014] | inactive: -1.37 | inactive: -0.583 | inactive: -0.74
Cc1nc(Cn2cnc3c2c(=O)n(C)c(=O)n3C)no1 [Chinoin-170] | inactive: -3.21 | inactive: -1.49 | inactive: 2.23
CCC(C)OCC(CN(Cc1ccccc1)c1ccc2c(c1)OCO2)N1CCCC1 (centres undefined) | inactive: -1.59 | inactive: -0.959 | inactive: 4.26
CC(C)Cn1cnc2c(N)nc3ccccc3c21 [imiquimod] | inactive: -1.83 | inactive: -2.29 | inactive: -1.29
CC12CCC3C(=CCc4cc(O)ccc43)C1CCC2=O (centres undefined) | inactive: -0.22 | inactive: 1.42 | inactive: 0.332
Cc1cnc2c(c1)CCCC2C(N)=O (centres undefined) | inactive: -1.01 | inactive: -0.0959 | inactive: 0.0936
CCCC[C@H](NC(C)=O)C(=O)N[C@H]1CC(=O)NCCCC[C@@H](C(=O)O)NC(=O)[C@H](Cc2c[nH]c3ccccc23)NC(=O)[C@H](CCCNC(=N)N)NC(=O)[C@@H](Cc2ccccc2)NC(=O)[C@H](Cc2c[nH]cn2)NC1=O [Bremelanotide] | inactive: -1.08 | inactive: 1.7 | inactive: -1.28
COc1ccc(CCN2CCC(c3nc(COCC(F)(F)F)c(-c4ccc(F)cc4)o3)CC2)cc1S(N)(=O)=O | inactive: -0.364 | inactive: -0.815 | inactive: 1.84
CCc1nn(CCO)c(CC)c1Oc1cc(C#N)cc(C#N)c1 | inactive: -0.192 |  | inactive: -1.4
CCc1nn(CCO)c(CC)c1Oc1cc(C#N)cc(C#N)c1 [lersivirine] |  | inactive: 0.135 | 
O=C1c2ccccc2C(Cc2ccnc(F)c2)(Cc2ccnc(F)c2)c2ccccc21 | inactive: -0.756 | inactive: -0.872 | inactive: 2.49
COc1ccc(/C=N/NC(=N)N)c(Cl)c1OC | inactive: -1.32 | inactive: -0.57 | inactive: 0.997

Complete entries, quoted from the list:
CN1CCN(C2=Nc3ccccc3Sc3nccn32)CC1 [pentiapine] in the list: TEAD-luciferase reporter activity (compound concentration: 200 nM): inactive: -0.639; TEAD-luciferase reporter activity (compound concentration: 2 uM): inactive: -1.02; TEAD-luciferase reporter activity (compound concentration: 10 uM): inactive: -1.89
N#CC[C@H](C1CCCC1)n1cc(-c2ncnc3[nH]ccc23)cn1 in the list: TEAD-luciferase reporter activity (compound concentration: 200 nM): inactive: -0.668; TEAD-luciferase reporter activity (compound concentration: 10 uM): inactive: -0.629
CCC(C)OCC(CN(Cc1ccccc1)c1ccc2c(c1)OCO2)N1CCCC1 (centres undefined) in the list: TEAD-luciferase reporter activity (compound concentration: 200 nM): inactive: -1.59; TEAD-luciferase reporter activity (compound concentration: 2 uM): inactive: -0.959; TEAD-luciferase reporter activity (compound concentration: 10 uM): inactive: 4.26
CNCC(=O)N[C@H](C(=O)N[C@@H](Cc1ccccc1)[C@H](O)CN(CCC(C)C)C(=O)NC(C)(C)C)C(C)(C)C [Droxinavir] in the list: TEAD-luciferase reporter activity (compound concentration: 200 nM): inactive: 4.44; TEAD-luciferase reporter activity (compound concentration: 2 uM): inactive: -0.306; TEAD-luciferase reporter activity (compound concentration: 10 uM): inactive: 1.02

The listing continues:

Structure (SMILES) | TEAD-luciferase reporter activity (compound concentration: 200 nM) | TEAD-luciferase reporter activity (compound concentration: 2 uM) | TEAD-luciferase reporter activity (compound concentration: 10 uM)
COc1ccc(Cc2nc(=O)c3c(C)nc([C@@H](CCCc4ccccc4)[C@@H](C)O)n3[nH]2)cc1OC | inactive: -1.8 | inactive: 0.944 | inactive: 4.13
Nc1ncnc2c1ncn2[C@H]1CC[C@@H](CO)O1 [Dideoxyadenosine] | inactive: -1.19 | inactive: -0.853 | inactive: 0.306
CC(C)c1ccc(C(=O)c2cccs2)c(SCCCCCCCCN(C)C)n1 | inactive: -0.0223 | inactive: 0.16 | inactive: 0.65
Cc1cc(OCCCNCCC(N)=O)ccc1Cc1c(O[C@@H]2O[C@H](CO)[C@@H](O)[C@H](O)[C@H]2O)n[nH]c1C(C)C | inactive: -0.539 | inactive: 2.16 | inactive: 0.103
C=CC[N+]1([C@H]2C[C@H]3[C@@H]4CC[C@H]5C[C@H](O)[C@@H](N6CCOCC6)C[C@]5(C)[C@H]4CC[C@]3(C)[C@H]2OC(C)=O)CCCC1 [rocuronium bromide] |  | inactive: -1.11 | 
C=CC[N+]1([C@H]2C[C@H]3[C@@H]4CC[C@H]5C[C@H](O)[C@@H](N6CCOCC6)C[C@]5(C)[C@H]4CC[C@]3(C)[C@H]2OC(C)=O)CCCC1 [Rocuronium bromide] | inactive: 0.174 |  | inactive: 4.83
N#C/C(=C\c1ccc(O)c(O)c1)C(=O)NCCCCc1ccccc1 | inactive: -1.22 | inactive: -1.76 | inactive: -1.88
CN1CCC(=C2c3ccccc3C=Cc3ccccc32)CC1 [Cyproheptadine hydrochloride] |  | inactive: 2.86 | 
CN1CCC(=C2c3ccccc3C=Cc3ccccc32)CC1 | inactive: -0.726 |  | inactive: 0.849
COCCCCOC(=O)/C=C/c1ccc(-c2nc3c([nH]2)c(=O)n(CC2CCCCC2)c(=O)n3CC2CCCCC2)cc1 | inactive: -1.67 | inactive: -0.624 | inactive: 0.0414
NS(=O)(=O)c1ccc(NC(=O)Nc2ccc(F)cc2)cc1 | inactive: -1.1 | inactive: -0.34 | inactive: 0.508
O=C(N/N=C/c1ccc([N+](=O)[O-])o1)c1ccc(O)cc1 | active: 5.75 | inactive: -0.269 | inactive: 0.421
Cc1ncc([N+](=O)[O-])n1CCCN1CCOCC1 | inactive: -1.41 | inactive: -1.17 | inactive: -0.178
O=c1[nH]c2cc(-c3ccncc3)c(C(F)(F)F)nc2[nH]1 | inactive: -0.28 | inactive: 0.386 | inactive: -1.69
COC(=O)Nc1nc2ccc(C(=O)c3ccc(F)cc3)cc2[nH]1 [Flubendazole] | inactive: -0.613 |  | active: 5.93
COC(=O)Nc1nc2ccc(C(=O)c3ccc(F)cc3)cc2[nH]1 [flubendazole] |  | inactive: 0.396 | 
CCCCc1nc2ccc([C@@H]3C[C@H]4CCCN4O3)cc2c(=O)n1Cc1ccc(-c2ccccc2-c2nn[nH]n2)cc1 | inactive: -1.38 | inactive: -0.427 | inactive: 2.26
CN(C)CCc1c[nH]c2ccc(C[C@H]3COC(=O)N3)cc12 [Zolmitriptan] | inactive: 0.495 |  | inactive: 0.527
CN(C)CCc1c[nH]c2ccc(C[C@H]3COC(=O)N3)cc12 [zolmitriptan] |  | inactive: 0.796 | 
COc1ccc(S(=O)(=O)Nc2nc3ccccc3nc2Nc2ccc(C(C)=O)cc2)cc1 | inactive: -2.02 | inactive: -1.33 | inactive: -1.34
CCOc1ccc(CN2CCCC23Cc2ccccc2CNC3=O)cc1 (centres undefined) | inactive: -1.52 |  | inactive: -1.78
CC(C)CCOC(=O)C(N)c1ccccc1 (centres undefined) | inactive: -0.91 | inactive: -0.568 | inactive: 2.81
NCCNc1ccc(NCCN)c2c1C(=O)c1ccncc1C2=O [pixantrone] | inactive: -1.07 |  | inactive: -0.656
N#CCCCSC(=N)N [Thioureidobutyronitrile hydrochloride] | inactive: -0.365 | inactive: -2.67 | inactive: -0.361
Cc1nc2ccc(C(=O)N3CCC4(CC3)CC(=O)c3c(cnn3C(C)C)C4)cc2[nH]1 | inactive: -1.42 | inactive: -0.205 | inactive: 0.347
COC(=O)C12C(O)C(C(=O)Cc3ccccn3)=NN1C(c1ccccc1)C=CC2c1ccccc1 (centres undefined) | inactive: -0.103 | inactive: -0.419 | inactive: -0.192
CC(C)NCC(O)c1ccc(O)c(O)c1 (centres undefined) | inactive: -0.602 | inactive: -1.87 | active: 7.37
